The values below come from paper PMC8560872.

Amino acid sequences for entries named in this document (tags omitted).
UniProt P03146: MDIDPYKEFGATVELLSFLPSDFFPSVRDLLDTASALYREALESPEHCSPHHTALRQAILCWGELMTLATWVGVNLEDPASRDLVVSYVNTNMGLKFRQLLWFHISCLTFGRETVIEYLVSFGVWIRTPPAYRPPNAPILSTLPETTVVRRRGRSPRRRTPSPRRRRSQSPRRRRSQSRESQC
UniProt Q8N6T7: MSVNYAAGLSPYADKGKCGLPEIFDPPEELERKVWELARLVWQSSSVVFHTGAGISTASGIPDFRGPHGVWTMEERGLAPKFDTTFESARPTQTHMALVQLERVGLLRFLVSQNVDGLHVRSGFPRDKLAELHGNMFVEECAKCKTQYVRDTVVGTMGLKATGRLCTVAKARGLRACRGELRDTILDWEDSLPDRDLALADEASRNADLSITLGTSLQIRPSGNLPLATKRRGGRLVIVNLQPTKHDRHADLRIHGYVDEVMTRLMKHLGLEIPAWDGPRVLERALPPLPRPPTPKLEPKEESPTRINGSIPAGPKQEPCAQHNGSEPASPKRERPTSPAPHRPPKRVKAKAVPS
UniProt Q9NRC8: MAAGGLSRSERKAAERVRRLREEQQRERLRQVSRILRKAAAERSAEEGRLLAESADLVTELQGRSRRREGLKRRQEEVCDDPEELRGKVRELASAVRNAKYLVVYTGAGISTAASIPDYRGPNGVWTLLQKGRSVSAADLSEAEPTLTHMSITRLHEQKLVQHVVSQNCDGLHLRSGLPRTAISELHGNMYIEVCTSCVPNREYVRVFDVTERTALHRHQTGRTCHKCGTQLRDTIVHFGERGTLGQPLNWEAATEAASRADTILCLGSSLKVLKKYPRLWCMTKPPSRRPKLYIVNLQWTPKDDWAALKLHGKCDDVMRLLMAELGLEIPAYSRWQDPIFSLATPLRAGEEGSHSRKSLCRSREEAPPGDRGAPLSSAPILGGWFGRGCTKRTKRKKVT
UniProt P03165: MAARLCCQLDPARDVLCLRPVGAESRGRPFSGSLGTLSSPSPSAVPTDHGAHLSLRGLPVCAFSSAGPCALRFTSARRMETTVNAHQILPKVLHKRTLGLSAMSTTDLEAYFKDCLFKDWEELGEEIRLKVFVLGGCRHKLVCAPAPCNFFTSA

Assay [1] has as its target HBcAg (Hepatitis B virus) (UniProt P03146). Description: co-IP; 293FT cells; co-IP performed mutually (both directions) between SIRT6 and HBcAg.
For assay [2] the target is unchanged. Put plainly: co-IP; transfected HEK293T cells, 48 h after transfection; co-IP buffer 50 mM Tris-HCl pH 7.4, 150 mM NaCl, 5 mM EDTA, 10% glycerol, 0.5% NP-40, sonicated; antibody-conjugated beads at 4 °C; western blotting. Background: Immunoblotting shows a protein as a band on a membrane.
For assay [3], the target named is SIRT6 (Sirtuin 6) (human) (UniProt Q8N6T7). Described as above.

No constants are given. Whether binding was seen depends on the method and setting. In cells and extracts the contact can be indirect. Some results given as binding are weak or reduced against the parent protein; the word gives no strength.

As for “SIRT6 (Sirtuin 6) (from UniProt Q8N6T7 1-355) (enzyme)”, the binding result in assay [1] and in assay [2] was “binds” in each case. In the case of “SIRT7 (from UniProt Q9NRC8 1-400) (enzyme)”, in assay [2], the binding result is reported as “binds weakly”. In the case of “X protein (HBxAg) (from UniProt P03165 1-154)”, the binding entry in assay [3] is “no binding”.
